The source of these data is publication PMC5349237.

Amino acid sequences for entries named in this document (tags omitted).
UniProt O14727: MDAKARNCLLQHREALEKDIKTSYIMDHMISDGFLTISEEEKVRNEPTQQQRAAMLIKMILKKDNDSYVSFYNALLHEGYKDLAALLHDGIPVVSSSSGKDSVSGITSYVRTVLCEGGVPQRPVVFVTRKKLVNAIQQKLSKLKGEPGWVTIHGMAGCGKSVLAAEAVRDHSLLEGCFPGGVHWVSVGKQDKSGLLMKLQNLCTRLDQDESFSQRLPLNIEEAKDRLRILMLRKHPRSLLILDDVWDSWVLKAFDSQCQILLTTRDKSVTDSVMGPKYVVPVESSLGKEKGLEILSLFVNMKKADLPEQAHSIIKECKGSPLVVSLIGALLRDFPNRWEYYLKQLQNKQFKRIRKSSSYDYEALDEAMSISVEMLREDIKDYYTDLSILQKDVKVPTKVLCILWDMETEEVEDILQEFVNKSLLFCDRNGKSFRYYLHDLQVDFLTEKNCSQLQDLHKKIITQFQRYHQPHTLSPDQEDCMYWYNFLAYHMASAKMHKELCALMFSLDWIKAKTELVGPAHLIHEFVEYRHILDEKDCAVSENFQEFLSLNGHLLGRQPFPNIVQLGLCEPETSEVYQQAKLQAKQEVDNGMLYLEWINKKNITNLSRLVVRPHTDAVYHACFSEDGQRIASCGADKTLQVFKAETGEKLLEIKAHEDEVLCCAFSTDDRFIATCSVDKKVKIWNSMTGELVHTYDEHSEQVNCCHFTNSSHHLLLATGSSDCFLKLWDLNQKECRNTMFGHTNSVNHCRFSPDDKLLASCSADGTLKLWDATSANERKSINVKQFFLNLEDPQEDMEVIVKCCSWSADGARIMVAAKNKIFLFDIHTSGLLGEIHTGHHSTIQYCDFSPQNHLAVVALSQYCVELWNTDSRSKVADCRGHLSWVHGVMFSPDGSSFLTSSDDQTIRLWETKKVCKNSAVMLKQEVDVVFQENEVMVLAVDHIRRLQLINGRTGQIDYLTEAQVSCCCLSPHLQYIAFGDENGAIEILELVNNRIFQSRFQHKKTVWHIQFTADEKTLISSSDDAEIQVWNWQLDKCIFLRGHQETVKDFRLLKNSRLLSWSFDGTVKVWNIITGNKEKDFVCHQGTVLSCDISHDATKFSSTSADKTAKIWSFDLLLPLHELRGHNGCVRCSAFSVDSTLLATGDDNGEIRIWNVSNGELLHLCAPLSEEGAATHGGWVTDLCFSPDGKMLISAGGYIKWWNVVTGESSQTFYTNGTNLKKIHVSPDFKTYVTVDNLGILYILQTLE
UniProt P62894: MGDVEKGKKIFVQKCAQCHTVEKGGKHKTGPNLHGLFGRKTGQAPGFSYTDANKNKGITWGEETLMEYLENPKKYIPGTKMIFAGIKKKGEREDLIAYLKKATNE

The target of the test is apoptotic protease activating factor 1 (Apaf-1) (human (endogenous in Jurkat)) (UniProt O14727). The experiment in a line: co-IP; cell-free cytosolic Jurkat extract, with or without preincubation with T. gondii (1 × 10^8 per ml), activated with 10 µg/ml cytochrome c, 250 µM dATP and 250 µM DTT; Apaf-1 precipitated with anti-Apaf-1 (clone 24) and protein A-Sepharose with 100 µM Ac-DMQD-CHO; blot for cytochrome c; only the binder purified.

These are yes or no findings as the source states them, for the method shown. In cells and extracts the contact can be indirect. Some binding calls cover weakened binding; strength is not graded here.

With “cytochrome c (from UniProt P62894 1-105)”, the binding result is “binds”.
